Values quoted from earlier work in patent US9492315B2, “Implantable therapeutic device” (ForSight Vision4, Inc., priority 2010, dated 2016).
For at least one compound, name, drawing or mass did not settle the structure.

Details: Stay, M S et al. Pharm Res 2003; cited from earlier work

In the case of `O=C1OC2(c3ccc(O)cc3Oc3cc(O)ccc32)c2ccccc21` [Fluorescein, fluorescein sodium], the “diffusion coefficient D” value is listed as 4.8 to 6 e-6 cm^2/s.
